The results in this text go back to the supplement of paper PMC7877785.

± gives the uncertainty stated by the source. Many entries were measured with a wide error.

A short description of this data set: self-splicing fitness, log relative to wild type (ln ratio); higher = more splicing; Tetrahymena group I intron in knt gene, E. coli kanamycin selection, DiMSum; sequences stand for … in CUCUCU…GGAGGGAAAAGUUAUCAGGCAUGCACCUGGUAGCUAGUCUUUAAACCAAUAGAUUGCAUCGGUUUAAAAGGCAAGACCGUCAAAUUGCGGGAAAGGGGUCAACAGCCGUUCAGUACCAAGUCUCAGGGGAAACUUUGAGAUGGCCUUGCAAAGGGUAUGGUAAUAAGCUGACGGACAUGGUCCUAACCACGCAGCCAAGUCCUAAGUCAACAGAUCUUCUGUUGAUAUGGAUGCAGUUCACAGACUAAAUGUCGGUCGGGGAAGAUGUAUUCUUCUCAUAAGAUAUAGUCGGACCUCUCCUUAAUGGGAGCUAGCGGAUGAAGUGAUGCAACACUGGAGCCGCUGGGAACUAAUUUGUAUGCGAAAGUAUAUUGAUUAGUUUUGGAGUACUCGUGGUCG
A digest of the protocol:
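Pooled colonies went to amplicon sequencing on an Illumina HiSeq 2500 after six replicate transformations. The plates were LB agar with 100 μg/mL carbenicillin, 50 μM IPTG and 0.2% rhamnose, with or without 25 μg/mL kanamycin, incubated overnight at 37°C or 30°C. The E. coli BL21(DE3) library had all eight P1ex-region intron nucleotides randomised, the intron placed in the knt kanamycin-resistance gene on pET-22b(+). DiMSum fitness is the error-weighted combination of replicate fold changes, kanamycin against none, normalised to wild type.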

In the case of UCCUAGCAAUAUUACGCUGC, where the note is “30 °C”, the “self-splicing fitness (ln)” value was -4.05 ± 1.

Regarding GUCGAGCAAUAUUACGCACC, the “self-splicing fitness (ln)” value (37 °C) is -0.506 ± 1.

In the case of UAAUAGCAAUAUUACGGGAC, the “self-splicing fitness (ln)” value (30 °C) was -2.77 ± 0.54 and the “self-splicing fitness (ln)” value (37 °C) is -3.43 ± 0.73.

Take CAACAGCAAUAUUACGCGUA: the “self-splicing fitness (ln)” value (30 °C) is -1.55 ± 0.093 and the “self-splicing fitness (ln)” value (37 °C) is -1.06 ± 0.088.

As for CGUUAGCAAUAUUACGUCCC, the “self-splicing fitness (ln)” value (30 °C) was -4.04 ± 0.73.

Regarding UGAAAGCAAUAUUACGAGCC, the “self-splicing fitness (ln)” value runs as follows: (30 °C) -3.43 ± 1; (37 °C) -1.22 ± 0.9.

On to GCAAAGCAAUAUUACGAGAC, for which the “self-splicing fitness (ln)” value was -4.04 ± 0.52 (30 °C) and -2.63 ± 0.43 (37 °C).

As for AUCGAGCAAUAUUACGCGCC, the “self-splicing fitness (ln)” value (37 °C) was -0.309 ± 0.55.

Turning to UUGCAGCAAUAUUACGCUAC, where the note is “37 °C”, the “self-splicing fitness (ln)” value was -2.48 ± 0.63.

With AAGGAGCAAUAUUACGAGCC, where the note is “37 °C”, the “self-splicing fitness (ln)” value is -2.64 ± 1.1.

UCGGAGCAAUAUUACGGCUC: the “self-splicing fitness (ln)” value (37 °C) is -0.602 ± 0.51.

For ACCUAGCAAUAUUACGAACA, the “self-splicing fitness (ln)” value runs as follows: (30 °C) -2.24 ± 0.29; (37 °C) 0.383 ± 0.2.

CGAUAGCAAUAUUACGCUCG: the “self-splicing fitness (ln)” value by setting is: (30 °C) -3.93 ± 0.53; (37 °C) -2.03 ± 0.47.

For the sequence CGUAAGCAAUAUUACGCAGC, where the note is “30 °C”, the “self-splicing fitness (ln)” value was -3.12 ± 1.1.

With ACAGAGCAAUAUUACGCUGC, the “self-splicing fitness (ln)” value (37 °C) was -3.36 ± 0.52.

For CAUGAGCAAUAUUACGACAA, the “self-splicing fitness (ln)” value (30 °C) was -3.15 ± 0.61.

Turning to UUGGAGCAAUAUUACGAAGC, the “self-splicing fitness (ln)” value runs as follows: (30 °C) -2.37 ± 0.54; (37 °C) -1.33 ± 0.61.

In the case of CAGUAGCAAUAUUACGCAUC, the “self-splicing fitness (ln)” value (30 °C) was -4.17 ± 1.1.

For the sequence GCAAAGCAAUAUUACGGAGA, the “self-splicing fitness (ln)” value (37 °C) was -2.49 ± 0.76.

With UGGGAGCAAUAUUACGAAAU, for the setting “37 °C”, the “self-splicing fitness (ln)” value is -2.88 ± 1.1.

Regarding UUUAAGCAAUAUUACGGAUG, the “self-splicing fitness (ln)” value (30 °C) is -1.56 ± 0.1 and the “self-splicing fitness (ln)” value (37 °C) was -0.852 ± 0.13.

For the sequence GUGAAGCAAUAUUACGACCU, the “self-splicing fitness (ln)” value reads like this: (30 °C) -2.66 ± 1.1; (37 °C) 0.753 ± 0.57.

UUAGAGCAAUAUUACGCCGC: the “self-splicing fitness (ln)” value runs as follows: (30 °C) -3.43 ± 1; (37 °C) -2.79 ± 1.1.

Regarding CAGGAGCAAUAUUACGAGAA, the “self-splicing fitness (ln)” value (30 °C) is -5.31 ± 1.

In the case of UCUGAGCAAUAUUACGAGUU, the “self-splicing fitness (ln)” value (37 °C) is -2.71 ± 0.55.

As to CGCGAGCAAUAUUACGGUUG, the “self-splicing fitness (ln)” value (30 °C) is -1.73 ± 0.068 and the “self-splicing fitness (ln)” value (37 °C) was -1.76 ± 0.12.

As to GUCGAGCAAUAUUACGCCAU, the “self-splicing fitness (ln)” value runs as follows: (30 °C) -2.99 ± 0.28; (37 °C) -2.4 ± 0.24.

Regarding CAAGAGCAAUAUUACGAUUC, the “self-splicing fitness (ln)” value (37 °C) is -1.62 ± 0.58.

Turning to ACGGAGCAAUAUUACGGUAG, under “30 °C”, the “self-splicing fitness (ln)” value is -3.95 ± 0.51.

In the case of CUCCAGCAAUAUUACGGUCA, the “self-splicing fitness (ln)” value by setting is: (30 °C) -2.86 ± 0.13; (37 °C) -1.82 ± 0.13.

As to CAAUAGCAAUAUUACGUAAU, the “self-splicing fitness (ln)” value was -3.35 ± 0.21 (30 °C) and -1.92 ± 0.18 (37 °C).

In the case of CAGCAGCAAUAUUACGCCGC, the “self-splicing fitness (ln)” value by setting is: (30 °C) -2.65 ± 0.8; (37 °C) -1.66 ± 0.83.

On to AACAAGCAAUAUUACGAAUC, for which the “self-splicing fitness (ln)” value is -3.22 ± 0.17 (30 °C) and -2.24 ± 0.13 (37 °C).

Turning to GGGCAGCAAUAUUACGGCCC, the “self-splicing fitness (ln)” value (37 °C) stood at 0.694 ± 1.1.

Consider UUUGAGCAAUAUUACGGGCC, for which the “self-splicing fitness (ln)” value was -3.57 ± 0.61 (30 °C) and -3.44 ± 0.6 (37 °C).

UUGUAGCAAUAUUACGCUUU: the “self-splicing fitness (ln)” value (30 °C) is -4.71 ± 0.51.

AACGAGCAAUAUUACGCCCA: the “self-splicing fitness (ln)” value is, setting by setting: (30 °C) -2.09 ± 1; (37 °C) 0.659 ± 1.2.

As for UAGUAGCAAUAUUACGCUUC, the “self-splicing fitness (ln)” value (30 °C) was -2.81 ± 1.1.

As for CACUAGCAAUAUUACGUUGA, the “self-splicing fitness (ln)” value by setting is: (30 °C) -3.56 ± 0.2; (37 °C) -2.24 ± 0.16.

Turning to CAAGAGCAAUAUUACGGCCC, the “self-splicing fitness (ln)” value (30 °C) is -3.39 ± 0.74.

With AUUGAGCAAUAUUACGGAGG, the “self-splicing fitness (ln)” value (37 °C) was -2.95 ± 0.74.

On to UGGGAGCAAUAUUACGGCUC, for which the “self-splicing fitness (ln)” value was -2.79 ± 1.2 (30 °C) and -2.79 ± 1.1 (37 °C).

GAGGAGCAAUAUUACGCCAG: the “self-splicing fitness (ln)” value (30 °C) is -2.65 ± 0.66.

Take GAUAAGCAAUAUUACGGCGC: the “self-splicing fitness (ln)” value is 0.0448 ± 0.13 (30 °C) and -0.881 ± 0.13 (37 °C).

As to CGAAAGCAAUAUUACGAGAA, the “self-splicing fitness (ln)” value (37 °C) is -2.3 ± 0.57.

As for UGACAGCAAUAUUACGUGAU, the “self-splicing fitness (ln)” value by setting is: (30 °C) -3.05 ± 0.11; (37 °C) -0.351 ± 0.084.
